Test results taken from the supplement of paper PMC10849652.
Some of the results follow.

By UniProt entry, the sequences of proteins in these tests, tags left out. Where a name states a change or a piece, a line headed by the entry shows the natural chain unless it says otherwise.
UniProt P06748, whole entry, looked up: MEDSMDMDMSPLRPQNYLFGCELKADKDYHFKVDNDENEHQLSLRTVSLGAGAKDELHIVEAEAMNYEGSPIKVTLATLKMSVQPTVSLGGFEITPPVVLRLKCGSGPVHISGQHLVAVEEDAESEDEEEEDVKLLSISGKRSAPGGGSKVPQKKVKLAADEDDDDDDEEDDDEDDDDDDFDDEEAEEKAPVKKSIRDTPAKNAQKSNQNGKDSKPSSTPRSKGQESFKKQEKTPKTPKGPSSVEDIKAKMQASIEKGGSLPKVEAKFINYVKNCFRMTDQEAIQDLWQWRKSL
UniProt Q9Y639: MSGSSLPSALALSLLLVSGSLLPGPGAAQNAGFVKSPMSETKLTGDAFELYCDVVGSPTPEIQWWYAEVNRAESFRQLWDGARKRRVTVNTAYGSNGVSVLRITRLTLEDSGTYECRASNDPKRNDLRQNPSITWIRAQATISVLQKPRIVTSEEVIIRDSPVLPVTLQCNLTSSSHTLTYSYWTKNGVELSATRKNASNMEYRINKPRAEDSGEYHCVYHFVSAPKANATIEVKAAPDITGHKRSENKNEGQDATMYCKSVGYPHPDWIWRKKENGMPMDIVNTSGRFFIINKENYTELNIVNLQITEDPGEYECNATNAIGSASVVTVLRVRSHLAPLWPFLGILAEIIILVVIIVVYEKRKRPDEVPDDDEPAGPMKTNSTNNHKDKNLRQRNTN
UniProt O60551: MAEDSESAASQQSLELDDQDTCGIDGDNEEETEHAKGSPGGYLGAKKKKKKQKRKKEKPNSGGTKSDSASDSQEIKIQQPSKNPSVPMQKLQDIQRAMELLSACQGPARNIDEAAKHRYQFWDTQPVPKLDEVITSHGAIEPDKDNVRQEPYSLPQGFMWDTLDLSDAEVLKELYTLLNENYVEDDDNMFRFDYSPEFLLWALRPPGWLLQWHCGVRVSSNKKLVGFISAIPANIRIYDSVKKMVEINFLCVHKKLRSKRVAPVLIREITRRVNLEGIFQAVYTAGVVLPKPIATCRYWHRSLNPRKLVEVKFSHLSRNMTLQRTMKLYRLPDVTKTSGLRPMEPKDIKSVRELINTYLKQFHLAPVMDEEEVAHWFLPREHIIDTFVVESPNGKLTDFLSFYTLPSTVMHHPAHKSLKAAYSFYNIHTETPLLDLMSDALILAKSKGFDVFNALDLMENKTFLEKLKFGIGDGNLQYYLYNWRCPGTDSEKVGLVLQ
UniProt Q9ULX3: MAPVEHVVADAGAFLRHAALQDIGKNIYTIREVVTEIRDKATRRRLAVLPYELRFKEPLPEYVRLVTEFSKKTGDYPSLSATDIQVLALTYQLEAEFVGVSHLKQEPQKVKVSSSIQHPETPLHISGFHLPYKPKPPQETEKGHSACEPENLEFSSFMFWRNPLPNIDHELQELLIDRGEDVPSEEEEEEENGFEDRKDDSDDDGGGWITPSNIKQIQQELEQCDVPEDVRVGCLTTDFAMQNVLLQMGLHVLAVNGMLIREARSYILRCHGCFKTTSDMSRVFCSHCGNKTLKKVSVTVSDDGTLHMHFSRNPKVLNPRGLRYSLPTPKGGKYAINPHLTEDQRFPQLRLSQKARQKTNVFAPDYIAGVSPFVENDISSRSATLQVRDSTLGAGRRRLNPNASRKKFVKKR
UniProt O15118: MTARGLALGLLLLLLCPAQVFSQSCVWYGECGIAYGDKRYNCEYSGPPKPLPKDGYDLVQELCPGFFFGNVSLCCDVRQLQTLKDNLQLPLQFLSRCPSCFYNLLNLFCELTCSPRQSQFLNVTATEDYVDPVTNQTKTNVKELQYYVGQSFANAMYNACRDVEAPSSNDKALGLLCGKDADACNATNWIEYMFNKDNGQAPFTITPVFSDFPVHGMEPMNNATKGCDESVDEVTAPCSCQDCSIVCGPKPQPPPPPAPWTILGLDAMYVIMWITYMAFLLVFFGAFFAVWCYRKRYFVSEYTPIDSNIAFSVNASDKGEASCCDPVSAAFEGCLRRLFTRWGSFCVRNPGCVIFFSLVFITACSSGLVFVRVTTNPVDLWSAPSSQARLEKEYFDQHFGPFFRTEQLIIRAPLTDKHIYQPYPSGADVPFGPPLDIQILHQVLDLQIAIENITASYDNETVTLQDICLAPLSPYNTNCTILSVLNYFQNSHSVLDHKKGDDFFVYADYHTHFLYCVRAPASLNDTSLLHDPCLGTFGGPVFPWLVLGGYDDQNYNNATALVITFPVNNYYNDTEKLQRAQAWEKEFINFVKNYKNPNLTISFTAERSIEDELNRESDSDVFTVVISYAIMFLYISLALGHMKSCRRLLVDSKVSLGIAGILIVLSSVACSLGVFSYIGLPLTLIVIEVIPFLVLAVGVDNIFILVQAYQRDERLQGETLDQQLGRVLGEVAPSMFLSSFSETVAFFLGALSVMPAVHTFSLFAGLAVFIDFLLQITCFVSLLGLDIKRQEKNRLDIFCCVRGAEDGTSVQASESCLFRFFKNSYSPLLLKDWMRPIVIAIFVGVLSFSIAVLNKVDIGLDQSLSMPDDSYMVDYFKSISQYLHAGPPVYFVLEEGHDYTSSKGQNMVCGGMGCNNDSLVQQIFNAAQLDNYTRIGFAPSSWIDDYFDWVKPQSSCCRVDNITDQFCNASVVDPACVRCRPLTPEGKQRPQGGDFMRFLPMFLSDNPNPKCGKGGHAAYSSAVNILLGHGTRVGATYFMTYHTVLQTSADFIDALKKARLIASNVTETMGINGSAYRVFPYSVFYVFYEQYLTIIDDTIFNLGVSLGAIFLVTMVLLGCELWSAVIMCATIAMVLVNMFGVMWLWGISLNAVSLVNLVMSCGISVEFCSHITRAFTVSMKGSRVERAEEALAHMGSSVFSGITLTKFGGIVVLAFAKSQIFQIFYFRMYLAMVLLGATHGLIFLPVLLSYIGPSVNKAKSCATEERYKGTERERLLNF
UniProt Q8WUM0: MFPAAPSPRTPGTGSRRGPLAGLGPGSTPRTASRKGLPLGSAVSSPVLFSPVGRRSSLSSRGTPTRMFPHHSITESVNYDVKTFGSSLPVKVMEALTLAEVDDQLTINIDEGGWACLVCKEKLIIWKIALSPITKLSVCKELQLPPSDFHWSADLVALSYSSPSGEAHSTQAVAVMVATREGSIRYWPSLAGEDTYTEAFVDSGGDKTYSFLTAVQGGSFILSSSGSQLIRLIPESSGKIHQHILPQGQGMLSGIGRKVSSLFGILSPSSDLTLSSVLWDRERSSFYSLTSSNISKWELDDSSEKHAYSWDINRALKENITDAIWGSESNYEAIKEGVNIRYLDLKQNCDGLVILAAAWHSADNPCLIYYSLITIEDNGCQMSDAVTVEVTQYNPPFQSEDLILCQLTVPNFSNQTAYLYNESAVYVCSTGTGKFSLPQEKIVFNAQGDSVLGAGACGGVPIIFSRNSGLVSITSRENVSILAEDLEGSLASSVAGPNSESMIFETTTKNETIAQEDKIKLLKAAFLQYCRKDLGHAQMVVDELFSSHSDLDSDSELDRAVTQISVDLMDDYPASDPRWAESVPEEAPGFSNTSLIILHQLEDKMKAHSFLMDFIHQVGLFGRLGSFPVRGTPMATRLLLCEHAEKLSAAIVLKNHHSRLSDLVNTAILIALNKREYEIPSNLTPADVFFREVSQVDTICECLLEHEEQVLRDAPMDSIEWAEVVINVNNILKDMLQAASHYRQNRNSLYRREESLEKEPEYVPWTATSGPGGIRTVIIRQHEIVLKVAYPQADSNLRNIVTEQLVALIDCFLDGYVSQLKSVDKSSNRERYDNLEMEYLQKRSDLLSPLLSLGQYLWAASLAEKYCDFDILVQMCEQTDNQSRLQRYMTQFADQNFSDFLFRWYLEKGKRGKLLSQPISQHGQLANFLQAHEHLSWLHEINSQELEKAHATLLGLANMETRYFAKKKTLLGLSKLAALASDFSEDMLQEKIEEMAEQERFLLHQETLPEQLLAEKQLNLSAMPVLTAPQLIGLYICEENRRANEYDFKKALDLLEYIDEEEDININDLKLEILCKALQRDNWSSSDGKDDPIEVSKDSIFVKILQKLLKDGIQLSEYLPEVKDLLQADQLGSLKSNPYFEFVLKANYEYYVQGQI
UniProt Q96DE0: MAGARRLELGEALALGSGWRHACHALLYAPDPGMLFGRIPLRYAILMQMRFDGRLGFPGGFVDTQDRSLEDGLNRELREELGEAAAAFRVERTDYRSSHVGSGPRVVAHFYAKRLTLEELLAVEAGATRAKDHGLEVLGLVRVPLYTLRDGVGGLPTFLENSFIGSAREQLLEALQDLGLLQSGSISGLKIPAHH
UniProt Q15233: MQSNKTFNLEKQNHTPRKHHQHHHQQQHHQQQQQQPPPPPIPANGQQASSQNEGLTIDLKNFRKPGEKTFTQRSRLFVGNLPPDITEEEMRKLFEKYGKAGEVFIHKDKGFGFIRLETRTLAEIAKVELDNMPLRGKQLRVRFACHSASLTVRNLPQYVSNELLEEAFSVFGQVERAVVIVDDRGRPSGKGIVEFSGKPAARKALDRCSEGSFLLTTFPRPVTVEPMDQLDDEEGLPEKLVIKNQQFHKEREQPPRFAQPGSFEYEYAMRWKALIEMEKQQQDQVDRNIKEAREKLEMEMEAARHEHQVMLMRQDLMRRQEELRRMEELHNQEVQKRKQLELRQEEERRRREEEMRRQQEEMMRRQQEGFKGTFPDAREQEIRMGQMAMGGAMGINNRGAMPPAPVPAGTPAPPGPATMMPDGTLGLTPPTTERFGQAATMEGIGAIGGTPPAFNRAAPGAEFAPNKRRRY
UniProt P30419: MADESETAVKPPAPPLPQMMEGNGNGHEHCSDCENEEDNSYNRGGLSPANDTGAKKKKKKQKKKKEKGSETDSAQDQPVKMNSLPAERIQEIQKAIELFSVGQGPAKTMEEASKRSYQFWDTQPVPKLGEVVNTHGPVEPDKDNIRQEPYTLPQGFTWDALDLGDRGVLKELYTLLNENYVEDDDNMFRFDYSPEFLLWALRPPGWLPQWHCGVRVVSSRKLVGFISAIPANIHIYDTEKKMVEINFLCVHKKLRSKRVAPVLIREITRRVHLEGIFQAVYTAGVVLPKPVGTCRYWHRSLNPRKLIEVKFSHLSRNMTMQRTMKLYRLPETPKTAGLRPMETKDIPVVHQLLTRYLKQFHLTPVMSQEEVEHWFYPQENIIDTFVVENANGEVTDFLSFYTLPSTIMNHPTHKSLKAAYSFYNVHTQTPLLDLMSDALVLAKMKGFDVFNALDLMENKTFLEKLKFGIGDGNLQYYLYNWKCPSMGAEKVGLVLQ
UniProt P78549: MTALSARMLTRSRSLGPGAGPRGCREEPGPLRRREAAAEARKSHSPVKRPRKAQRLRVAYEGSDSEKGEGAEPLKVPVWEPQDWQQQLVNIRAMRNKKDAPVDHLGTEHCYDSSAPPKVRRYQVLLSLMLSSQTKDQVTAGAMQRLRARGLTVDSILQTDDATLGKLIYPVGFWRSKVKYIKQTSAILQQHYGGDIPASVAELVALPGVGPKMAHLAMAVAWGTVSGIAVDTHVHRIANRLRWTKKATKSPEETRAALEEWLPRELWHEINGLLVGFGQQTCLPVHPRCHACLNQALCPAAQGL
UniProt Q8IVI9: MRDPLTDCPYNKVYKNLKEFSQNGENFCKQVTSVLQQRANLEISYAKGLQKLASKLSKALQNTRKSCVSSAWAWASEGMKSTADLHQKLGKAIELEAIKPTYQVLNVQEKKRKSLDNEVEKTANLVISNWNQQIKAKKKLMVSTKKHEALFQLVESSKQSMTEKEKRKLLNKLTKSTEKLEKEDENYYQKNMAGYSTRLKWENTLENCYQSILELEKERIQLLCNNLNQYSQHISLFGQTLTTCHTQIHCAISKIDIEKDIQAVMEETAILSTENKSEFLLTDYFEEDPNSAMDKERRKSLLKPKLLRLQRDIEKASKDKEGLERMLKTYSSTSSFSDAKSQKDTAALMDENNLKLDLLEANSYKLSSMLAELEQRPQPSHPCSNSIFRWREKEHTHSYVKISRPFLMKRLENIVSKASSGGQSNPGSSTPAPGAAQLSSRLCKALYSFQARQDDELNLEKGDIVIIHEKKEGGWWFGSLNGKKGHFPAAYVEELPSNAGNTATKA
UniProt Q86UY8: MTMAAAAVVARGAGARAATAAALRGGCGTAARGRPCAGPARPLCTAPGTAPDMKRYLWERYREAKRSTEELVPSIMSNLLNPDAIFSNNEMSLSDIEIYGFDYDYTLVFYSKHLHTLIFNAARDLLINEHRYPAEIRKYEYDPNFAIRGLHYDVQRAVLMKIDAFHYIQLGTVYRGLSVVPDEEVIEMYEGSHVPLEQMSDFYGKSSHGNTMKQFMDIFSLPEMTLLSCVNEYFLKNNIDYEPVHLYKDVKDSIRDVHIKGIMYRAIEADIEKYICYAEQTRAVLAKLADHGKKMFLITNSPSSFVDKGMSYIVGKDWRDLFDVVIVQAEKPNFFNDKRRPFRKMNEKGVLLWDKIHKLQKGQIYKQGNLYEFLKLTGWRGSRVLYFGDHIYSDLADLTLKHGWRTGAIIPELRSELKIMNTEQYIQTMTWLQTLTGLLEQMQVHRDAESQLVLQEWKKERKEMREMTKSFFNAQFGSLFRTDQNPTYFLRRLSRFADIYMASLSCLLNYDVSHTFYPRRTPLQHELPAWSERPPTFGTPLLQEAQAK

What was measured:
Experiment in all cases: log2 fold change, soluble protein after heating vs DMSO (PISA); higher = thermal stabilisation; K562 lysate, 10 uM; active = over 0.2 and 3.5 SD of the protein, either way, in both replicates (recomputed)
lapatinib = compound: CS(=O)(=O)CCNCc1ccc(-c2ccc3ncnc(Nc4ccc(OCc5cccc(F)c5)c(Cl)c4)c3c2)o1 [lapatinib]
Method in brief: (§1)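 To prepare the extract, K562 pellets were dounce-homogenised in PBS pH 7.4 with 1 mM MgCl2, giving crude material at 1 mg/mL protein. This was treated with 10 μM compound for 30 min, then heated in aliquots for 3 min over 48°C-58°C before pooling and addition of NP-40 to 0.5% at 4°C. Centrifugation at 21,000xg for 90 min left soluble protein in the supernatant, which TMTpro 16plex LC-MS/MS quantified with equalised channel sums. Results are log-two fold changes in thermal stability compared with solvent controls, from duplicates.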

pictilisib = compound: CS(=O)(=O)N1CCN(Cc2cc3nc(-c4cccc5[nH]ncc45)nc(N4CCOCC4)c3s2)CC1 [pictilisib]
Method in brief: as §1

crizotinib = compound: C[C@@H](Oc1cc(-c2cnn(C3CCNCC3)c2)cnc1N)c1c(Cl)ccc(F)c1Cl [crizotinib]
Method in brief: as §1

[1] = compound: C[C@H](C1=CC=C(C=C1)C(=O)NC2=C3C=CNC3=NC=C2)N
Method in brief: as §1

duvelisib = compound: C[C@H](Nc1ncnc2nc[nH]c12)c1cc2cccc(Cl)c2c(=O)n1-c1ccccc1 [duvelisib]
Method in brief: as §1

gandotinib = compound: Cc1cc(Nc2cc(CN3CCOCC3)c3nc(C)c(Cc4ccc(Cl)cc4F)n3n2)n[nH]1 [gandotinib]
Method in brief: as §1

tozasertib = compound: Cc1cc(Nc2cc(N3CCN(C)CC3)nc(Sc3ccc(NC(=O)C4CC4)cc3)n2)n[nH]1 [tozasertib]
Method in brief: as §1

doramapimod = compound: Cc1ccc(-n2nc(C(C)(C)C)cc2NC(=O)Nc2ccc(OCCN3CCOCC3)c3ccccc23)cc1 [doramapimod]
Method in brief: as §1

bafetinib = compound: Cc1ccc(NC(=O)c2ccc(CN3CC[C@H](N(C)C)C3)c(C(F)(F)F)c2)cc1Nc1nccc(-c2cncnc2)n1 [bafetinib]
Method in brief: as §1

[2] = compound: Cc1cccc(CC(=O)N2CCc3c2ccc(-c2cn(C)c4ncnc(N)c24)c3F)n1
Method in brief: as §1

nilotinib = compound: Cc1cn(-c2cc(NC(=O)c3ccc(C)c(Nc4nccc(-c5cccnc5)n4)c3)cc(C(F)(F)F)c2)cn1 [nilotinib]
Method in brief: as §1

[3] = compound: Cc1nc(Nc2n[nH]c3c2CN(C(=O)N[C@H](CN(C)C)c2ccccc2)C3(C)C)c2sccc2n1
Method in brief: as §1

dasatinib = compound: Cc1nc(Nc2ncc(C(=O)Nc3c(C)cccc3Cl)s2)cc(N2CCN(CCO)CC2)n1 [dasatinib]
Method in brief: as §1

[4] = compound: Cc1ncc(-c2ccnc(Nc3ccc(S(C)(=O)=O)cc3)n2)n1C(C)C
Method in brief: as §1

[5] = compound: Cn1cc(-c2ccc3c(c2)CCN3C(=O)Cc2cccc(C(F)(F)F)c2)c2c(N)ncnc21
Method in brief: as §1

quisinostat = compound: Cn1cc(CNCC2CCN(c3ncc(C(=O)NO)cn3)CC2)c2ccccc21 [quisinostat]
Method in brief: as §1

tipifarnib = compound: Cn1cncc1[C@@](N)(c1ccc(Cl)cc1)c1ccc2c(c1)c(-c1cccc(Cl)c1)cc(=O)n2C [tipifarnib]
Method in brief: as §1

[6] = compound: NC(=O)Nc1cc(-c2cccc(F)c2)sc1C(=O)N[C@H]1CCCNC1
Method in brief: as §1

[7] = compound: NC(=O)c1cnc(N[C@@H]2CCCC[C@@H]2N)nc1Nc1cccc(-n2nccn2)c1
Method in brief: as §1

[8] = compound: NC1(c2ccc(-c3nc4ccn5c(=O)[nH]nc5c4cc3-c3ccccc3)cc2)CCC1
Method in brief: as §1

Measured: log2 fold change

NPM1 (UniProt P06748)
inactive: lapatinib -0.017 | pictilisib 0.021 | crizotinib 0.032 | [1] 0.037 | duvelisib 0.004 | gandotinib 0.007 | tozasertib 0.01 | doramapimod -0.042 | bafetinib 0.032 | [2] -0.051 | nilotinib 0.016 | [3] -0.017 | dasatinib 0.028 | [4] -0.004 | [5] -0.024 | quisinostat 0.039 | tipifarnib 0.032 | [6] -0.007 | [7] 0 | [8] 0.035

NPTN (UniProt Q9Y639)
inactive: lapatinib -0.057 | pictilisib -0.045 | crizotinib -0.058 | [1] -0.011 | duvelisib 0.049 | gandotinib 0.003 | tozasertib 0.007 | doramapimod 0.056 | bafetinib -0.029 | [2] 0.011 | nilotinib -0.029 | [3] 0.005 | dasatinib -0.06 | [4] -0.025 | [5] -0.009 | quisinostat -0.038 | tipifarnib 0.043 | [6] 0.031 | [7] 0.004 | [8] 0.002

NUMB (UniProt P49757)
inactive: lapatinib 0.033 | pictilisib 0.023 | crizotinib 0.02 | [1] -0.057 | duvelisib 0.029 | gandotinib 0.097 | tozasertib 0.047 | doramapimod 0.125 | bafetinib -0.069 | [2] 0.038 | nilotinib -0.03 | [3] -0.024 | dasatinib -0.072 | [4] -0.008 | [5] 0.001 | quisinostat -0.02 | tipifarnib 0.001 | [6] -0.029 | [7] -0.026 | [8] 0.003

NMT2 (UniProt O60551)
inactive: lapatinib -0.022 | pictilisib -0.01 | crizotinib -0.004 | [1] -0.017 | duvelisib 0.028 | gandotinib 0.007 | tozasertib 0.012 | doramapimod 0.023 | bafetinib 0.015 | [2] 0.052 | nilotinib -0.003 | [3] -0.015 | dasatinib -0.018 | [4] -0.019 | [5] -0.007 | quisinostat -0.063 | tipifarnib 0.013 | [6] 0.025 | [7] -0.017 | [8] -0.035

NOB1 (UniProt Q9ULX3)
inactive: lapatinib 0.027 | pictilisib 0.01 | crizotinib -0.019 | duvelisib -0.033 | gandotinib -0.084 | tozasertib 0.011 | doramapimod -0.023 | bafetinib -0.041 | [2] -0.048 | nilotinib 0.018 | [3] -0.026 | dasatinib 0.004 | [4] -0.066 | [5] 0.044 | quisinostat 0.041 | tipifarnib 0 | [6] 0.043 | [7] -0.018 | [8] 0.058
active: [1] 0.283

NUDT3 (UniProt O95989)
inactive: lapatinib -0.021 | pictilisib 0.04 | crizotinib 0.031 | [1] -0.003 | duvelisib 0.002 | gandotinib -0.037 | tozasertib 0.004 | doramapimod 0.091 | bafetinib 0.006 | [2] 0.015 | nilotinib 0.012 | [3] 0.034 | dasatinib -0.01 | [4] 0.029 | [5] -0.004 | quisinostat 0.149 | tipifarnib 0.037 | [6] -0.093 | [7] -0.006 | [8] 0.012

NPC1 (UniProt O15118)
inactive: lapatinib 0 | pictilisib 0.006 | crizotinib 0 | [1] -0.051 | duvelisib 0.051 | gandotinib 0.034 | tozasertib 0.006 | doramapimod 0.022 | bafetinib -0.035 | [2] 0.02 | nilotinib -0.007 | [3] -0.005 | dasatinib 0.01 | [4] -0.003 | [5] 0.02 | quisinostat -0.077 | tipifarnib 0.002 | [6] -0.002 | [7] 0.008 | [8] -0.004

NUP133 (UniProt Q8WUM0)
active: gandotinib 0.251
inactive: lapatinib -0.007 | pictilisib -0.01 | crizotinib -0.093 | [1] -0.075 | duvelisib -0.01 | tozasertib 0.042 | doramapimod 0.061 | bafetinib -0.074 | [2] 0.218 | nilotinib 0.023 | [3] -0.006 | dasatinib -0.026 | [4] 0.019 | [5] 0.056 | quisinostat -0.092 | tipifarnib -0.039 | [6] 0.006 | [7] 0.005 | [8] -0.016

NUDT16 (UniProt Q96DE0)
inactive: lapatinib -0.002 | pictilisib -0.042 | crizotinib 0.001 | [1] 0.005 | duvelisib 0.017 | gandotinib 0.021 | tozasertib 0.038 | doramapimod -0.003 | bafetinib -0.018 | [2] 0 | nilotinib -0.005 | [3] -0.006 | dasatinib 0.026 | [4] 0.035 | [5] 0.009 | quisinostat -0.011 | tipifarnib -0.01 | [6] -0.005 | [7] -0.005 | [8] -0.008

NONO (UniProt Q15233)
inactive: lapatinib -0.004 | pictilisib 0.001 | crizotinib 0.011 | [1] 0.071 | duvelisib -0.01 | gandotinib -0.06 | tozasertib 0.028 | doramapimod -0.014 | bafetinib -0.033 | [2] -0.04 | nilotinib -0.007 | [3] -0.011 | dasatinib -0.047 | [4] 0.007 | [5] 0.012 | quisinostat -0.004 | tipifarnib -0.007 | [6] 0.022 | [7] 0.008 | [8] -0.013

NMT1 (UniProt P30419)
inactive: lapatinib 0.02 | pictilisib 0.005 | crizotinib -0.006 | [1] 0.016 | duvelisib -0.023 | gandotinib -0.021 | tozasertib 0.012 | doramapimod -0.015 | bafetinib 0.09 | [2] -0.034 | nilotinib -0.037 | [3] 0.044 | dasatinib 0.058 | [4] -0.016 | [5] -0.022 | quisinostat -0.065 | tipifarnib 0.001 | [6] 0.007 | [7] -0.005 | [8] -0.057

NOP56 (UniProt O00567)
inactive: lapatinib -0.034 | pictilisib -0.01 | crizotinib -0.013 | [1] 0.037 | duvelisib 0.006 | gandotinib -0.114 | tozasertib -0.037 | doramapimod -0.041 | bafetinib -0.015 | [2] -0.012 | nilotinib 0.017 | [3] -0.004 | dasatinib -0.007 | [4] 0.001 | [5] -0.007 | quisinostat 0.015 | tipifarnib -0.009 | [6] 0.025 | [7] 0 | [8] 0.012

NTHL1 (UniProt P78549)
inactive: lapatinib -0.117 | pictilisib -0.401 | crizotinib 0.001 | [1] 0.097 | duvelisib -0.018 | gandotinib -0.007 | tozasertib -0.081 | doramapimod 0.012 | bafetinib -0.103 | [2] 0.091 | nilotinib -0.062 | [3] 0.031 | dasatinib 0.014 | [4] 0.174 | [5] 0.056 | quisinostat -0.006 | tipifarnib -0.033 | [6] 0.094 | [7] -0.039 | [8] -0.059

NOSTRIN (UniProt Q8IVI9)
inactive: lapatinib -0.022 | pictilisib -0.011 | crizotinib 0.06 | [1] 0.017 | duvelisib 0.047 | gandotinib -0.047 | tozasertib 0.058 | doramapimod -0.03 | bafetinib -0.078 | [2] -0.012 | nilotinib -0.015 | [3] -0.02 | dasatinib -0.022 | [4] 0.03 | [5] 0.01 | quisinostat -0.031 | tipifarnib -0.008 | [6] 0.01 | [7] -0.018 | [8] 0.064

NT5DC3 (UniProt Q86UY8)
inactive: lapatinib 0.03 | pictilisib -0.012 | crizotinib 0.014 | [1] -0.073 | duvelisib 0.005 | gandotinib 0.02 | tozasertib 0.008 | doramapimod -0.037 | bafetinib -0.006 | [2] 0.015 | nilotinib -0.01 | [3] 0.008 | dasatinib 0.037 | [4] 0.044 | [5] 0.024 | quisinostat -0.046 | tipifarnib 0.003 | [6] 0.007 | [7] -0.002 | [8] -0.016

2 neighbouring entries out of the list so far:
NPC1 (UniProt O15118)
inactive: lapatinib 0 | pictilisib 0.006 | crizotinib 0 | [1] -0.051 | duvelisib 0.051 | gandotinib 0.034 | tozasertib 0.006 | doramapimod 0.022 | bafetinib -0.035 | [2] 0.02 | nilotinib -0.007 | [3] -0.005 | dasatinib 0.01 | [4] -0.003 | [5] 0.02 | quisinostat -0.077 | tipifarnib 0.002 | [6] -0.002 | [7] 0.008 | [8] -0.004

NUP133 (UniProt Q8WUM0)
active: gandotinib 0.251
inactive: lapatinib -0.007 | pictilisib -0.01 | crizotinib -0.093 | [1] -0.075 | duvelisib -0.01 | tozasertib 0.042 | doramapimod 0.061 | bafetinib -0.074 | [2] 0.218 | nilotinib 0.023 | [3] -0.006 | dasatinib -0.026 | [4] 0.019 | [5] 0.056 | quisinostat -0.092 | tipifarnib -0.039 | [6] 0.006 | [7] 0.005 | [8] -0.016

(next part)

NUDT4 (UniProt Q9NZJ9)
active: [2] -0.304
inactive: lapatinib -0.01 | pictilisib -0.055 | crizotinib 0.032 | [1] 0.166 | duvelisib -0.039 | gandotinib -0.188 | tozasertib -0.022 | doramapimod -0.076 | bafetinib 0.117 | nilotinib 0.115 | [3] -0.03 | dasatinib 0.038 | [4] -0.002 | [5] 0.006 | quisinostat 0.129 | tipifarnib 0.11 | [6] 0.018 | [7] -0.059 | [8] 0.022
